Publication PMC8592882
Results are given in words; binding and its absence hold for the method and conditions named. Some results given as binding are weak or reduced against the parent protein; the word gives no strength. Blank lines part the entries; values can stand above or below the substance they belong to.

Amino acid sequences for entries named in this document (tags omitted). A change or cut given only in a name is not applied to a line headed by its entry.
UniProt Q63009: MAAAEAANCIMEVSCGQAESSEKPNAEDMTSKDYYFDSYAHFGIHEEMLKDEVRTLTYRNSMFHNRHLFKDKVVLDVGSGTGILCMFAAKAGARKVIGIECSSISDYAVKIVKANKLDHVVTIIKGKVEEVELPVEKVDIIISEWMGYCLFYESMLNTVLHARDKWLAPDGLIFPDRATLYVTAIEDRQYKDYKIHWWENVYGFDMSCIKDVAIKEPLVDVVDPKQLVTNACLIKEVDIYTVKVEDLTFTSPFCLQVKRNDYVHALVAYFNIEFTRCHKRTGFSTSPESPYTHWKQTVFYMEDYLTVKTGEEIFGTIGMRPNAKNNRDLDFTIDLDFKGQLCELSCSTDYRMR

How the values were obtained:
[1] = molecular target: M206V rPRMT1 (R. norvegicus) (UniProt Q63009); assay: native gel or EMSA; 4 to 20% native PAGE with western detection (anti-PRMT1 or anti-His); protein at 750 nM, 1 uM and 2 uM in 50 mM sodium phosphate, 1 mM EDTA, 1 mM DTT, 10% glycerol, pH 7.6; run at 4 C; bands assigned with WT PRMT1 (tetramer) and a tetramerization-deficient mutant (dimer) as standards; both purified
[2] = molecular target: W197L rPRMT1 (R. norvegicus) (UniProt Q63009); assay: as above
[3] = molecular target: W197L/Y202N/M206V rPRMT1 (R. norvegicus) (UniProt Q63009); assay: AUC; sedimentation velocity, 3 uM protein, 50 mM sodium phosphate, 2 mM EDTA, pH 7.6, 2 mM DTT added to appropriate tubes, 20 C, 40,000 rpm, absorbance at 280 nm, c(s) analysis in Sedfit; both purified
[4] = molecular target: W197L/Y202N/M206V rPRMT1 (R. norvegicus) (UniProt Q63009); assay: native gel or EMSA; 4 to 20% native PAGE with western detection (anti-PRMT1 or anti-His); protein at 750 nM, 1 uM and 2 uM in 50 mM sodium phosphate, 1 mM EDTA, 1 mM DTT, 10% glycerol, pH 7.6; run at 4 C; bands assigned with WT PRMT1 (tetramer) and a tetramerization-deficient mutant (dimer) as standards; both purified
[5] = molecular target: Y202N rPRMT1 (R. norvegicus) (UniProt Q63009); assay: as above

binding [1]: binds weakly
Substance: M206V rPRMT1 (from UniProt Q63009 14-353) (enzyme)

binding [2]: binds weakly
Substance: W197L rPRMT1 (from UniProt Q63009 14-353) (enzyme)

binding [3]: binds weakly
binding [4]: binds weakly
Substance: W197L/Y202N/M206V rPRMT1 (from UniProt Q63009 14-353) (enzyme)

binding [5]: binds weakly
Substance: Y202N rPRMT1 (from UniProt Q63009 14-353) (enzyme)
